Data reported in PubChem BioAssay AID188 (DTP/NCI, 2004).
Values are animals surviving of animals treated; these mice carried no tumour. Counts of survivors are from the toxicity check (mostly the fifth day) where no day follows; animals may have died later. Schedules are NCI's codes, taken here to give the interval after Q, in days (D) or hours (H), and the number of doses after X. Some entries hold several experiments; the results are listed from low to high. Some structures stand for samples that the source files as different forms (salt, stereo form or complex); doses refer to the form tested.

Test system: CD2F1 mice, nontumored, toxicity/survival
Test: NCI In Vivo Anticancer Drug Screen. Data for tumor model Nontumored Animals (Toxicity Test) in CD2F1 (CDF1) mice
[1] = dose: 1.0 mg/kg/injection, schedule: Q01DX001 (ip), vehicle: DMSO
[2] = dose: 10.0 mg/kg/injection, schedule: Q01DX001 (ip), vehicle: DMSO
[3] = dose: 100.0 mg/kg/injection, schedule: Q01DX001 (ip), vehicle: DMSO
[4] = dose: 1.0 mg/kg/injection, schedule: Q01DX001 (ip), vehicle: other
[5] = dose: 10.0 mg/kg/injection, schedule: Q01DX001 (ip), vehicle: other
[6] = dose: 100.0 mg/kg/injection, schedule: Q01DX001 (ip), vehicle: other
[7] = dose: 1.0 mg/kg/injection, schedule: Q01DX001 (ip), vehicle: water
[8] = dose: 10.0 mg/kg/injection, schedule: Q01DX001 (ip), vehicle: water
[9] = dose: 100.0 mg/kg/injection, schedule: Q01DX001 (ip), vehicle: water

SMILES: S=c1nc[nH]c2nc[nH]c12
- survivor count (dose: 15.6 mg/kg/injection, schedule: Q01DX009 (ip), vehicle: alkali diluted with saline): 5 of 5
- survivor count (dose: 22.0 mg/kg/injection, schedule: Q01DX009 (ip), vehicle: Klucel (hydroxypropylcellulose) (HPC)): 10 of 10
- survivor count (dose: 25.9 mg/kg/injection, schedule: Q01DX009 (ip), vehicle: alkali diluted with saline): 5 of 5
- survivor count (dose: 33.0 mg/kg/injection, schedule: Q01DX009 (ip), vehicle: Klucel (hydroxypropylcellulose) (HPC)): 8 of 10
- survivor count (dose: 43.2 mg/kg/injection, schedule: Q01DX009 (ip), vehicle: alkali diluted with saline): 5 of 5
- survivor count (dose: 43.2 mg/kg/injection, schedule: Q04DX003 (ip), vehicle: other): 4 of 4
- survivor count (dose: 50.0 mg/kg/injection, schedule: Q01DX009 (ip), vehicle: Klucel (hydroxypropylcellulose) (HPC)): 10 of 10
- survivor count (dose: 72.0 mg/kg/injection, schedule: Q01DX009 (ip), vehicle: alkali diluted with saline): 5 of 5
- survivor count (dose: 72.0 mg/kg/injection, schedule: Q04DX003 (ip), vehicle: other): 4 of 4
- survivor count (dose: 100.0 mg/kg/injection, schedule: Q01DX001 (ip), vehicle: alkali diluted with water): 4 of 4
- survivor count (dose: 120.0 mg/kg/injection, schedule: Q01DX009 (ip), vehicle: alkali diluted with saline): 5 of 5
- survivor count (dose: 120.0 mg/kg/injection, schedule: Q04DX003 (ip), vehicle: other): 4 of 4
- survivor count (dose: 167.0 mg/kg/injection, schedule: Q01DX001 (ip), vehicle: alkali diluted with water): 4 of 4
- survivor count (dose: 200.0 mg/kg/injection, schedule: Q04DX003 (ip), vehicle: other): 4 of 4
- survivor count (dose: 278.0 mg/kg/injection, schedule: Q01DX001 (ip), vehicle: alkali diluted with water): 4 of 4

SMILES: CN(C)N=Nc1ccccc1
- survivor count (dose: 25.0 mg/kg/injection, schedule: Q01DX009 (ip), vehicle: Klucel (hydroxypropylcellulose) (HPC)): 7 of 10
- survivor count (dose: 37.0 mg/kg/injection, schedule: Q01DX009 (ip), vehicle: Klucel (hydroxypropylcellulose) (HPC)): 10 of 10
- survivor count (dose: 55.0 mg/kg/injection, schedule: Q01DX009 (ip), vehicle: Klucel (hydroxypropylcellulose) (HPC)): 10 of 10
- survivor count (dose: 83.0 mg/kg/injection, schedule: Q01DX009 (ip), vehicle: Klucel (hydroxypropylcellulose) (HPC)): 9 of 10
- survivor count (dose: 125.0 mg/kg/injection, schedule: Q01DX009 (ip), vehicle: Klucel (hydroxypropylcellulose) (HPC)): 1 of 10

SMILES: O=C1c2c(O)ccc(O)c2C(=O)c2c(NCCNCCO)ccc(NCCNCCO)c21
- survivor count (dose: 3.89 mg/kg/injection, schedule: Q01DX001 (ip), vehicle: acid diluted with saline): 10 of 10
- survivor count (dose: 3.89 mg/kg/injection, schedule: Q01DX001 (sc), vehicle: acid diluted with saline): 10 of 10
- survivor count (dose: 6.0 mg/kg/injection, schedule: Q01DX001 (ip), vehicle: saline): 10 of 10
- survivor count (dose: 6.48 mg/kg/injection, schedule: Q01DX001 (ip), vehicle: acid diluted with saline): 10 of 10
- survivor count (dose: 6.48 mg/kg/injection, schedule: Q01DX001 (sc), vehicle: acid diluted with saline): 10 of 10
- survivor count (dose: 8.0 mg/kg/injection, schedule: Q01DX001 (ip), vehicle: saline): 10 of 10
- survivor count (dose: 10.64 mg/kg/injection, schedule: Q01DX001 (ip), vehicle: saline): 10 of 10
- survivor count (dose: 10.8 mg/kg/injection, schedule: Q01DX001 (ip), vehicle: acid diluted with saline): 10 of 10
- survivor count (dose: 10.8 mg/kg/injection, schedule: Q01DX001 (sc), vehicle: acid diluted with saline): 10 of 10
- survivor count (dose: 14.0 mg/kg/injection, schedule: Q01DX001 (iv), vehicle: acid diluted with saline): 10 of 10
- survivor count (dose: 14.2 mg/kg/injection, schedule: Q01DX001 (iv), vehicle: other): 8 of 10 and 10 of 10
- survivor count (dose: 14.24 mg/kg/injection, schedule: Q01DX001 (ip), vehicle: saline): 10 of 10
- survivor count (dose: 14.24 mg/kg/injection, schedule: Q01DX001 (iv), vehicle: acid diluted with saline): 10 of 10
- survivor count (dose: 18.0 mg/kg/injection, schedule: Q01DX001 (ip), vehicle: acid diluted with saline): 10 of 10
- survivor count (dose: 18.0 mg/kg/injection, schedule: Q01DX001 (sc), vehicle: acid diluted with saline): 10 of 10
- survivor count (dose: 18.95 mg/kg/injection, schedule: Q01DX001 (ip), vehicle: saline): 10 of 10
- survivor count (dose: 18.98 mg/kg/injection, schedule: Q01DX001 (iv), vehicle: acid diluted with saline): 10 of 10
- survivor count (dose: 19.0 mg/kg/injection, schedule: Q01DX001 (iv), vehicle: other): 10 of 10
- survivor count (dose: 25.3 mg/kg/injection, schedule: Q01DX001 (iv), vehicle: other): 9 of 10 and 10 of 10
- survivor count (dose: 25.31 mg/kg/injection, schedule: Q01DX001 (ip), vehicle: saline): 10 of 10
- survivor count (dose: 25.31 mg/kg/injection, schedule: Q01DX001 (iv), vehicle: acid diluted with saline): 8 of 10 and 10 of 10
- survivor count (dose: 30.0 mg/kg/injection, schedule: Q01DX001 (ip), vehicle: acid diluted with saline): 8 of 10 and 10 of 10
- survivor count (dose: 30.0 mg/kg/injection, schedule: Q01DX001 (sc), vehicle: acid diluted with saline): 8 of 10 and 10 of 10
- survivor count (dose: 33.7 mg/kg/injection, schedule: Q01DX001 (iv), vehicle: other): 4 of 10 and 6 of 10
- survivor count (dose: 33.75 mg/kg/injection, schedule: Q01DX001 (ip), vehicle: saline): 10 of 10
- survivor count (dose: 33.75 mg/kg/injection, schedule: Q01DX001 (iv), vehicle: acid diluted with saline): 6 of 10 and 10 of 10
- survivor count (dose: 45.0 mg/kg/injection, schedule: Q01DX001 (ip), vehicle: saline): 10 of 10
- survivor count (dose: 45.0 mg/kg/injection, schedule: Q01DX001 (iv), vehicle: acid diluted with saline): 4 of 10 and 10 of 10
- survivor count (dose: 45.0 mg/kg/injection, schedule: Q01DX001 (iv), vehicle: other): 1 of 10 and 3 of 10
- survivor count (dose: 50.0 mg/kg/injection, schedule: Q01DX001 (ip), vehicle: acid diluted with saline): 1 of 10 and 5 of 10
- survivor count (dose: 50.0 mg/kg/injection, schedule: Q01DX001 (sc), vehicle: acid diluted with saline): 1 of 10 and 6 of 10
- survivor count (dose: 60.0 mg/kg/injection, schedule: Q01DX001 (ip), vehicle: saline): 8 of 10
- survivor count (dose: 60.0 mg/kg/injection, schedule: Q01DX001 (iv), vehicle: acid diluted with saline): 6 of 10 and 10 of 10
- survivor count (dose: 60.0 mg/kg/injection, schedule: Q01DX001 (iv), vehicle: other): 4 of 10
- survivor count (dose: 80.0 mg/kg/injection, schedule: Q01DX001 (ip), vehicle: saline): 8 of 10
- survivor count (dose: 80.0 mg/kg/injection, schedule: Q01DX001 (iv), vehicle: acid diluted with saline): 2 of 10 and 10 of 10
- survivor count (dose: 80.0 mg/kg/injection, schedule: Q01DX001 (iv), vehicle: other): 1 of 10 and 9 of 10
- survivor count (dose: 83.3 mg/kg/injection, schedule: Q01DX001 (ip), vehicle: acid diluted with saline): 1 of 10 and 2 of 10
- survivor count (dose: 83.3 mg/kg/injection, schedule: Q01DX001 (sc), vehicle: acid diluted with saline): 3 of 10 and 5 of 10
- survivor count (dose: 106.0 mg/kg/injection, schedule: Q01DX001 (iv), vehicle: acid diluted with saline): 3 of 10 and 7 of 10
- survivor count (dose: 106.7 mg/kg/injection, schedule: Q01DX001 (ip), vehicle: saline): 2 of 10
- survivor count (dose: 106.7 mg/kg/injection, schedule: Q01DX001 (iv), vehicle: other): 0 of 10
- survivor count (dose: 142.0 mg/kg/injection, schedule: Q01DX001 (iv), vehicle: acid diluted with saline): 5 of 10 and 2 of 2
- survivor count (dose: 142.2 mg/kg/injection, schedule: Q01DX001 (iv), vehicle: other): 0 of 10
- survivor count (dose: 142.4 mg/kg/injection, schedule: Q01DX001 (ip), vehicle: saline): 0 of 9
- survivor count (dose: 189.6 mg/kg/injection, schedule: Q01DX001 (ip), vehicle: saline): 0 of 5
- survivor count (dose: 189.6 mg/kg/injection, schedule: Q01DX001 (iv), vehicle: other): 0 of 10

SMILES: CC(=O)Nc1nc(Br)c2ccccc2c1-c1ccc(N)cc1
- survivor count [1]: 2 of 2
- survivor count [2]: 2 of 2
- survivor count [3]: 2 of 2

SMILES: CC(=O)Nc1ncc2ccccc2c1-c1ccc(N(CCOS(=O)(=O)c2ccc(C)cc2)CCOS(=O)(=O)c2ccc(C)cc2)cc1
- survivor count [4]: 2 of 2
- survivor count [5]: 2 of 2
- survivor count [6]: 2 of 2

SMILES: COc1ccc2c3c1OC1C(Oc4nnnn4-c4ccccc4)C=CC4C(C2)N(C)CCC341 (centres undefined)
- survivor count [4]: 2 of 2
- survivor count [5]: 2 of 2
- survivor count [6]: 2 of 2

SMILES: COCN(COC)c1nc(CCC(Br)(Br)Br)nc(N(COC)COC)n1
- survivor count [7]: 2 of 2
- survivor count [8]: 2 of 2
- survivor count [9]: 2 of 2

SMILES: Nc1nc(N)c(N=Nc2cccc3ccccc23)c(N)n1
- survivor count [7]: 2 of 2
- survivor count [8]: 2 of 2
- survivor count [9]: 2 of 2

SMILES: CC(=O)Nc1nc(Br)c2ccccc2c1-c1ccc(N(CCCl)CCCl)cc1
- survivor count [1]: 2 of 2
- survivor count [2]: 2 of 2
- survivor count [3]: 2 of 2

SMILES: CCN(CC)c1nc(N)c([N+](=O)[O-])c(/C=C\c2ccc(N(CCCl)CCCl)cc2)n1
- survivor count [7]: 2 of 2
- survivor count [8]: 2 of 2
- survivor count [9]: 2 of 2

SMILES: O=c1cnn(C2OC(CO)C(O)C2O)c(=O)[nH]1 (centres undefined)
- survivor count (dose: 62.5 mg/kg/injection, schedule: Q03HX016 (ip), vehicle: water): 10 of 10
- survivor count (dose: 125.0 mg/kg/injection, schedule: Q03HX016 (ip), vehicle: water): 10 of 10
- survivor count (dose: 250.0 mg/kg/injection, schedule: Q03HX016 (ip), vehicle: water): 10 of 10
- survivor count (dose: 500.0 mg/kg/injection, schedule: Q03HX016 (ip), vehicle: water): 9 of 10 and 10 of 10
- survivor count (dose: 1000.0 mg/kg/injection, schedule: Q03HX016 (ip), vehicle: water): 8 of 10 and 9 of 10
- survivor count (dose: 2000.0 mg/kg/injection, schedule: Q03HX016 (ip), vehicle: water): 8 of 10 and 10 of 10
